{"source": "patent US4956344A", "about": "“Method for treatment of lesions in the large intestinal epithelium with a tripeptide” (Hafslund Nycomed A/S, priority 1989, dated 1990)", "tested_on": "large intestinal epithelium", "assay": "Mitotic rate (Colcemid-arrested metaphases) in the large intestinal epithelium after i.p. injection", "assay_type": "in vivo, hairless mice", "settings": "10^-12 mole per animal; doses and times tested", "description": "All in vivo experiments were performed with hairless mice at 0800-0900 AM. The fractions were suspended in distilled water, slightly acidified (pH=6) and injected i.p. at different doses dependent on the purity of the fraction. The controls received solvent only. The pattern of cell proliferation after injecting the peptide was examined by varying the time between treatment and sacrifice.\nTwo hours before sacrifice (except for the experiments testing tissue specificity in the kidney) all animals received Colcemid 0.15 mg per animal i.p. ^3 HTdR (tritiated thymidine) was injected 30 minutes before sacrifice (30 μCi per animal i.p.). […]\nMitotic rate: After routine dehydration and paraffin embedding, sections were cut at 5 μm and stained with haematoxylin. Colcemid-arrested mitoses per 500 crypt cells were determined in ten longitudinally cut crypts in ileum and colon. Only crypts that were cut strictly longitudinally were accepted, viz., only those where the lumen of the crypt could be followed from the bottom of the gland to the lumen of the gut. No telophases were seen. The number of accumulated metaphases in epidermis Was determined by counting 25 vision fields of interfollicular epidermis (eyepiece 12.5, objective 40) and expressed as mitoses per vision field per 2h.", "note": "At least one peptide structure holds a part that was inferred or is arguable (an end, a ring closure or a residue). Square brackets hold non-standard residues; d marks the D form. Peptide text beside a SMILES is read from it. pGlu = O=C1CC[C@@H](C(=O)O)N1", "data": [{"smiles": "NCCCC[C@H](NC(=O)[C@H](CS)NC(=O)[C@H](CC(=O)O)NC(=O)[C@H](CCC(=O)O)NC(=O)[C@@H]1CCC(=O)N1)C(=O)O", "note": "[pglu-glu-Asp-Cys-Lys, reference compound] ([pGlu]EDCK-OH)", "values": [{"measurement": "cell proliferation in the large intestinal epithelium", "value": "unchanged"}]}]}
